# Assay results as given in the supplement of paper PMC8728848.
# The list shows a part of the results.
# Key:
# Experiment in all cases: glycan array binding signal (z-score within array); higher = stronger binding
# Settings in all cases: glycan notation: IUPAC condensed, linker removed
# [1] = target: Man(a1-2)Man(a1-3)[Man(a1-2)Man(a1-6)]Man(a1-6)[Man(a1-2)Man(a1-2)Man(a1-3)]Man
# How it was run: (§1)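 The Consortium for Functional Glycomics database supplied 3228 glycan arrays, of which those lacking an available protein sequence were dropped. The binding signal, a within-array Z-score, was averaged across arrays of the same protein sequence and across linkers. Negative scores can be read as non-binding.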
# [2] = target: Man(a1-2)Man(a1-3)[Man(a1-2)Man(a1-6)]Man(a1-6)[Man(a1-2)Man(a1-2)Man(a1-3)]Man(b1-4)GlcNAc(b1-4)GlcNAc
# How it was run: as §1
# [3] = target: Man(a1-2)Man(a1-3)[Man(a1-6)]Man(a1-6)[Man(a1-2)Man(a1-3)]Man(b1-4)GlcNAc(b1-4)GlcNAc
# How it was run: as §1
# [4] = target: Man(a1-2)Man(a1-6)[Man(a1-3)]Man(a1-6)[Man(a1-2)Man(a1-2)Man(a1-3)]Man
# How it was run: as §1
# [5] = target: Man(a1-2)Man(a1-6)[Man(a1-3)]Man(a1-6)[Man(a1-2)Man(a1-2)Man(a1-3)]Man(b1-4)GlcNAc(b1-4)GlcNAc
# How it was run: as §1
# [6] = target: Man(a1-3)[Man(a1-6)]Man
# How it was run: as §1
# [7] = target: Man(a1-3)[Man(a1-6)]Man(a1-6)[Man(a1-2)Man(a1-3)]Man(b1-4)GlcNAc(b1-4)GlcNAc
# How it was run: as §1
# [8] = target: Man(a1-3)[Man(a1-6)]Man(a1-6)[Man(a1-3)]Man
# How it was run: as §1
# [9] = target: Man(a1-3)[Man(a1-6)]Man(a1-6)[Man(a1-3)]Man(b1-4)GlcNAc(b1-4)GlcNAc
# How it was run: as §1
# [10] = target: Man(a1-3)[Man(a1-6)]Man(b1-4)GlcNAc(b1-4)GlcNAc
# How it was run: as §1
# [11] = target: Man(a1-3)[Man(a1-6)]Man(b1-4)GlcNAc(b1-4)[Fuc(a1-6)]GlcNAc
# How it was run: as §1
# [12] = target: Man(a1-6)Man
# How it was run: as §1
# [13] = target: Man(b1-4)GlcNAc
# How it was run: as §1
# [14] = target: MurNAc(b1-4)GlcNAc
# How it was run: as §1
# [15] = target: Neu5Ac(a2-3)Gal
# How it was run: as §1
# [16] = target: Neu5Ac(a2-3)Gal(b1-3)GalNAc
# How it was run: as §1
# [17] = target: Neu5Ac(a2-3)Gal(b1-3)GalNAc(b1-3)Gal(a1-4)Gal(b1-4)Glc
# How it was run: as §1
# [18] = target: Neu5Ac(a2-3)Gal(b1-3)GalNAc(b1-4)Gal(b1-4)Glc
# How it was run: as §1
# [19] = target: Neu5Ac(a2-3)Gal(b1-3)GalNAc(b1-4)[Neu5Ac(a2-3)]Gal(b1-4)Glc
# How it was run: as §1
# [20] = target: Neu5Ac(a2-3)Gal(b1-3)GalNAc(b1-4)[Neu5Ac(a2-8)Neu5Ac(a2-3)]Gal(b1-4)Glc
# How it was run: as §1
# [21] = target: Neu5Ac(a2-3)Gal(b1-3)GalNAc6S
# How it was run: as §1
# [22] = target: Neu5Ac(a2-3)Gal(b1-3)GlcNAc
# How it was run: as §1
# [23] = target: Neu5Ac(a2-3)Gal(b1-3)GlcNAc(b1-2)Man
# How it was run: as §1
# [24] = target: Neu5Ac(a2-3)Gal(b1-3)GlcNAc(b1-2)Man(a1-3)[GlcNAc(b1-4)][Neu5Ac(a2-3)Gal(b1-3)GlcNAc(b1-2)Man(a1-6)]Man(b1-4)GlcNAc(b1-4)GlcNAc
# How it was run: as §1
# [25] = target: Neu5Ac(a2-3)Gal(b1-3)GlcNAc(b1-2)Man(a1-3)[Neu5Ac(a2-3)Gal(b1-3)GlcNAc(b1-2)Man(a1-6)]Man(b1-4)GlcNAc(b1-4)GlcNAc
# How it was run: as §1
# [26] = target: Neu5Ac(a2-3)Gal(b1-3)GlcNAc(b1-2)[Neu5Ac(a2-3)Gal(b1-3)GlcNAc(b1-4)]Man(a1-6)[Neu5Ac(a2-3)Gal(b1-3)GlcNAc(b1-2)Man(a1-3)]Man(b1-4)GlcNAc(b1-4)GlcNAc
# How it was run: as §1
# [27] = target: Neu5Ac(a2-3)Gal(b1-3)GlcNAc(b1-3)Gal(b1-3)GlcNAc
# How it was run: as §1
# [28] = target: Neu5Ac(a2-3)Gal(b1-3)GlcNAc(b1-3)Gal(b1-4)GlcNAc
# How it was run: as §1
# [29] = target: Neu5Ac(a2-3)Gal(b1-3)GlcNAc(b1-3)GalNAc
# How it was run: as §1
# [30] = target: Neu5Ac(a2-3)Gal(b1-3)GlcNAc(b1-6)GalNAc
# How it was run: as §1
# [31] = target: Neu5Ac(a2-3)Gal(b1-3)GlcNAc6S
# How it was run: as §1
# [32] = target: Neu5Ac(a2-3)Gal(b1-3)[Fuc(a1-4)]GlcNAc
# How it was run: as §1
# [33] = target: Neu5Ac(a2-3)Gal(b1-3)[Fuc(a1-4)]GlcNAc(b1-3)Gal(b1-3)[Fuc(a1-4)]GlcNAc
# How it was run: as §1
# [34] = target: Neu5Ac(a2-3)Gal(b1-3)[Fuc(a1-4)]GlcNAc(b1-3)Gal(b1-4)[Fuc(a1-3)]GlcNAc
# How it was run: as §1
# [35] = target: Neu5Ac(a2-3)Gal(b1-3)[GlcNAc(b1-6)]GalNAc
# How it was run: as §1
# [36] = target: Neu5Ac(a2-3)Gal(b1-3)[Neu5Ac(a2-6)]GalNAc
# How it was run: as §1
# [37] = target: Neu5Ac(a2-3)Gal(b1-3)[Neu5Ac(a2-6)]GlcNAc(b1-3)[Fuc(a1-3)[Gal(b1-4)]GlcNAc(b1-6)]Gal(b1-4)Glc
# How it was run: as §1
# [38] = target: Neu5Ac(a2-3)Gal(b1-3)]Neu5Ac(a2-3)Gal(b1-4)]GlcNAc
# How it was run: as §1
# [39] = target: Neu5Ac(a2-3)Gal(b1-4)Glc
# How it was run: as §1
# [40] = target: Neu5Ac(a2-3)Gal(b1-4)GlcNAc
# How it was run: as §1
# [41] = target: Neu5Ac(a2-3)Gal(b1-4)GlcNAc(b1-2)Man
# How it was run: as §1
# [42] = target: Neu5Ac(a2-3)Gal(b1-4)GlcNAc(b1-2)Man(a1-3)[GlcNAc(b1-4)][Neu5Ac(a2-3)Gal(b1-4)GlcNAc(b1-2)Man(a1-6)]Man(b1-4)GlcNAc(b1-4)GlcNAc
# How it was run: as §1
# [43] = target: Neu5Ac(a2-3)Gal(b1-4)GlcNAc(b1-2)Man(a1-3)[Neu5Ac(a2-3)Gal(b1-4)GlcNAc(b1-2)Man(a1-6)]Man(b1-4)GlcNAc(b1-4)GlcNAc
# How it was run: as §1
# [44] = target: Neu5Ac(a2-3)Gal(b1-4)GlcNAc(b1-2)Man(a1-3)[Neu5Ac(a2-3)Gal(b1-4)GlcNAc(b1-2)Man(a1-6)]Man(b1-4)GlcNAc(b1-4)[Fuc(a1-6)]GlcNAc
# How it was run: as §1
# [45] = target: Neu5Ac(a2-3)Gal(b1-4)GlcNAc(b1-2)Man(a1-3)[Neu5Ac(a2-6)Gal(b1-4)GlcNAc(b1-2)Man(a1-6)]Man(b1-4)GlcNAc(b1-4)GlcNAc
# How it was run: as §1
binder,measurement,setting,value
Lb MiSSP8 (Laccaria bicolor) (protein) MYFHTLFACATLMLITTAHASPTVINSLDSRKADLNGDVEARHAADWRRDSDWRRDSDWRRDSDWRRDSD,glycan array binding signal (z-score),[1],-0.778
same,glycan array binding signal (z-score),[2],-0.033
same,glycan array binding signal (z-score),[3],-0.564
same,glycan array binding signal (z-score),[4],-0.578
same,glycan array binding signal (z-score),[5],-0.122
same,glycan array binding signal (z-score),[6],0.768
same,glycan array binding signal (z-score),[7],-0.033
same,glycan array binding signal (z-score),[8],2.36
same,glycan array binding signal (z-score),[9],-0.813
same,glycan array binding signal (z-score),[10],-0.613
same,glycan array binding signal (z-score),[11],-0.412
same,glycan array binding signal (z-score),[12],0.43
same,glycan array binding signal (z-score),[13],0.74
same,glycan array binding signal (z-score),[14],0.23
same,glycan array binding signal (z-score),[15],-0.606
same,glycan array binding signal (z-score),[16],-0.133
same,glycan array binding signal (z-score),[17],-0.281
same,glycan array binding signal (z-score),[18],-0.619
same,glycan array binding signal (z-score),[19],-0.295
same,glycan array binding signal (z-score),[20],-0.716
same,glycan array binding signal (z-score),[21],-0.433
same,glycan array binding signal (z-score),[22],-0.581
same,glycan array binding signal (z-score),[23],-0.82
same,glycan array binding signal (z-score),[24],-0.488
same,glycan array binding signal (z-score),[25],1.76
same,glycan array binding signal (z-score),[26],-0.026
same,glycan array binding signal (z-score),[27],-0.896
same,glycan array binding signal (z-score),[28],-0.868
same,glycan array binding signal (z-score),[29],-0.82
same,glycan array binding signal (z-score),[30],-0.419
same,glycan array binding signal (z-score),[31],-0.226
same,glycan array binding signal (z-score),[32],-0.73
same,glycan array binding signal (z-score),[33],-0.254
same,glycan array binding signal (z-score),[34],0.754
same,glycan array binding signal (z-score),[35],-0.578
same,glycan array binding signal (z-score),[36],-0.457
same,glycan array binding signal (z-score),[37],-0.012
same,glycan array binding signal (z-score),[38],-0.502
same,glycan array binding signal (z-score),[39],-0.343
same,glycan array binding signal (z-score),[40],-0.002
same,glycan array binding signal (z-score),[41],1.55
same,glycan array binding signal (z-score),[42],-0.523
same,glycan array binding signal (z-score),[43],-0.578
same,glycan array binding signal (z-score),[44],-0.378
same,glycan array binding signal (z-score),[45],1.18

# Shown with tabs: entries from further up
binder	measurement	setting	value
Lb MiSSP8 (Laccaria bicolor) (protein) MYFHTLFACATLMLITTAHASPTVINSLDSRKADLNGDVEARHAADWRRDSDWRRDSDWRRDSDWRRDSD	glycan array binding signal (z-score)	[26]	-0.026
same	glycan array binding signal (z-score)	[27]	-0.896
